Residue numbers refer to the chain shown, from its start. Results are given in words; binding and its absence hold for the method and conditions named. Binding seen in cells or lysates may run through a third protein. Some binding calls cover weakened binding; strength is not graded here. Where a sequence is shown, tags or fusion partners need not be part of it.
Tests used:
[1] = target: T1, WT GFP-L-plastin, expressed in MCF-7 cells (human) (UniProt P13796); assay: co-IP; GFP-nanotrap beads, lysate of PMA-treated MCF-7 cells expressing GFP-L-plastin; 10 mM Tris-HCl pH 7.5, 150 mM NaCl, 0.5 mM EDTA, 30 minutes at 4°C; immunoblot for cortactin
T1 sequence: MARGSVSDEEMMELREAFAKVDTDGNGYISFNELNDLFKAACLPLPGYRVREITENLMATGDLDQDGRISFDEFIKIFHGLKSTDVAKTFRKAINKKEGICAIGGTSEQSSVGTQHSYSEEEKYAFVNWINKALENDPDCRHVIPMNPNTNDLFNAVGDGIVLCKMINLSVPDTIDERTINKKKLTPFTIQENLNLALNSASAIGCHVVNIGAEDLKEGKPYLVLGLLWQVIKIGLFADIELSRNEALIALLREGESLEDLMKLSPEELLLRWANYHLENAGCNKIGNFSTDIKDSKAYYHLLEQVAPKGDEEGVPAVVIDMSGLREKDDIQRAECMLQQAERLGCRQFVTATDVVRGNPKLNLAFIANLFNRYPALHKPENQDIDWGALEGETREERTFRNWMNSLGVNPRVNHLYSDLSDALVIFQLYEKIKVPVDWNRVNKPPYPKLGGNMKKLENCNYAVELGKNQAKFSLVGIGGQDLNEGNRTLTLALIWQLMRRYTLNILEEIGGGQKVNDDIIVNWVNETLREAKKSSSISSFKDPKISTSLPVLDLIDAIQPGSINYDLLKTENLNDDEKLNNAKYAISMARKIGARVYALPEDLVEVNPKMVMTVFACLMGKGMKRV

Chains of the proteins cited; added tags and fusions are not shown.
UniProt Q14247: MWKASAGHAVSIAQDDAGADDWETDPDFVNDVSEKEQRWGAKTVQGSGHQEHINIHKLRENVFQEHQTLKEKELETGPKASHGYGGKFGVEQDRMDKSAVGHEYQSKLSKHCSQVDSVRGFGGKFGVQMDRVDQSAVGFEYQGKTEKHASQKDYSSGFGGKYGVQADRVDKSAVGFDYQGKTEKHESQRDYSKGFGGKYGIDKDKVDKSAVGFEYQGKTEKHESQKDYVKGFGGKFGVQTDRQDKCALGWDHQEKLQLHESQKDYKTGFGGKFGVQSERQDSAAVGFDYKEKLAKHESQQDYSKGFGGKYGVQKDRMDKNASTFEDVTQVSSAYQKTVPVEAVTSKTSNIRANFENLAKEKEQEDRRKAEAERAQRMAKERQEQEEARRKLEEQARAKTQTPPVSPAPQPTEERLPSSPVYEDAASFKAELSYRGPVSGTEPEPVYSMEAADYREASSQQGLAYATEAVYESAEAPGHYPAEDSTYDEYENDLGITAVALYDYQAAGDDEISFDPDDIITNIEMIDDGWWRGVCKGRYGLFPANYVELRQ

[2] = target: T1, WT GFP-L-plastin, expressed in MCF-7 cells (human); assay: co-IP; data not shown: GFP-nanotrap co-immunoprecipitation from MCF-7 cells with S5/A GFP-L-plastin, and with WT GFP-L-plastin from cells not treated with PMA; seen in some experiments
[3] = target: T2, phosphorylation-defective S5/A GFP-L-plastin, expressed in MCF-7 cells (human) (UniProt P13796); assay: as above
T2 sequence: T1 sequence with S5A

[4] = target: T3, recombinant unphosphorylated GST-L-plastin (human) (UniProt P13796); assay: pull-down; GST-L-plastin (20 µg) immobilised on glutathione-sepharose 4B beads, incubated overnight at 4°C with untreated MCF-7 cell extracts (200 µg); washed with cold PBS; immunoblot for cortactin; only the target purified
T3 sequence: T1 sequence

Measured: binding

cortactin (from UniProt Q14247 1-550)
binds: [1] | [2] | [3] | [4]

— publication PMC2821400
